Record: PubChem BioAssay AID743121 (NCATS, 2013)
This is an unselected part of about 26,000 reagents tested. Over the whole deposit, 167 (0.63%) were called active. 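Calls are per gene from RSA p-values that are not deposited; an individual active-marked siRNA can sensitise only weakly.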 Entries without a mark were called inactive. Reagents against one gene are numbered here. Not all columns of the deposit are shown.

Screen: 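Partners whose loss is lethal together with topoisomerase I blockade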 (primary screen)
System: MDA-MB-231 cells, a human breast cancer line
Knock-down reagent: single siRNA against human genes, 20 nM siRNA (0.8 pmol per well)
Timing: 120 h (drug added 48 h after transfection, read 72 h later)
Treatment: camptothecin 20 nM (about EC30) for 72 h; vehicle 0.1% DMSO in parallel plates
Read-out: 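CellTiter-Glo ATP signal, scaled to control siRNA as percent viability; sensitisation given as log2 of untreated divided by camptothecin-treated viability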
Scale: log2 vehicle/camptothecin viability: higher = stronger sensitisation to camptothecin
Rule for the call: 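Each gene scored by redundant siRNA activity (RSA) over its individual siRNA ratios; a gene is called active at p < 0.001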

ATN1 (atrophin 1) #1
- log2 vehicle/camptothecin viability: -0.118

ATN1 (atrophin 1) #2
- log2 vehicle/camptothecin viability: 0.148

ATN1 (atrophin 1) #3
- log2 vehicle/camptothecin viability: -0.298

SVIL (supervillin) #1
- log2 vehicle/camptothecin viability: -0.356

SVIL (supervillin) #2
- log2 vehicle/camptothecin viability: -0.432

SVIL (supervillin) #3
- log2 vehicle/camptothecin viability: -0.189

SVIL (supervillin) #4
- log2 vehicle/camptothecin viability: -0.0868

ZNRF3 (zinc and ring finger 3) #1
- log2 vehicle/camptothecin viability: -0.224

ZNRF3 (zinc and ring finger 3) #2
- log2 vehicle/camptothecin viability: -0.718

ZNRF3 (zinc and ring finger 3) #3
- log2 vehicle/camptothecin viability: -0.552

ZNRF3 (zinc and ring finger 3) #4
- log2 vehicle/camptothecin viability: 0.11

TAS2R60 (taste 2 receptor member 60) #1
- log2 vehicle/camptothecin viability: 0.0507

TAS2R60 (taste 2 receptor member 60) #2
- log2 vehicle/camptothecin viability: -0.14

TAS2R60 (taste 2 receptor member 60) #3
- log2 vehicle/camptothecin viability: 0.172

TAS2R60 (taste 2 receptor member 60) #4
- log2 vehicle/camptothecin viability: -0.0244

GCLM (glutamate-cysteine ligase modifier subunit) #1
- log2 vehicle/camptothecin viability: -0.0511

GCLM (glutamate-cysteine ligase modifier subunit) #2
- log2 vehicle/camptothecin viability: -0.216

GCLM (glutamate-cysteine ligase modifier subunit) #3
- log2 vehicle/camptothecin viability: 0.334

GCLM (glutamate-cysteine ligase modifier subunit) #4
- log2 vehicle/camptothecin viability: 0.013

CCM2L (CCM2 like scaffold protein) #1
- log2 vehicle/camptothecin viability: -0.0544

CCM2L (CCM2 like scaffold protein) #2
- log2 vehicle/camptothecin viability: 0.163

CCM2L (CCM2 like scaffold protein) #3
- log2 vehicle/camptothecin viability: 0.273

CCM2L (CCM2 like scaffold protein) #4
- log2 vehicle/camptothecin viability: -0.361

BAG1 (BAG cochaperone 1) #1
- log2 vehicle/camptothecin viability: -0.315

BAG1 (BAG cochaperone 1) #2
- log2 vehicle/camptothecin viability: -0.0249

BAG1 (BAG cochaperone 1) #3
- log2 vehicle/camptothecin viability: 0.347

BAG1 (BAG cochaperone 1) #4
- log2 vehicle/camptothecin viability: 0.623

TDRD3 (tudor domain containing 3) #1
- log2 vehicle/camptothecin viability: -0.165

TDRD3 (tudor domain containing 3) #2
- log2 vehicle/camptothecin viability: 0.54

TDRD3 (tudor domain containing 3) #3
- log2 vehicle/camptothecin viability: -0.246

TDRD3 (tudor domain containing 3) #4
- log2 vehicle/camptothecin viability: -0.0276

GUCA1A (guanylate cyclase activator 1A) #1
- log2 vehicle/camptothecin viability: -0.291

GUCA1A (guanylate cyclase activator 1A) #2
- log2 vehicle/camptothecin viability: -0.104

GUCA1A (guanylate cyclase activator 1A) #3
- log2 vehicle/camptothecin viability: -0.258

GUCA1A (guanylate cyclase activator 1A) #4
- log2 vehicle/camptothecin viability: -0.658

A few values from the entries so far.
Entry of TDRD3 (tudor domain containing 3) #1 under “log2 vehicle/camptothecin viability”: -0.165
Under “log2 vehicle/camptothecin viability”, CCM2L (CCM2 like scaffold protein) #2 is entered as 0.163
For “log2 vehicle/camptothecin viability”, TAS2R60 (taste 2 receptor member 60) #2 shows -0.14
For “log2 vehicle/camptothecin viability”, GCLM (glutamate-cysteine ligase modifier subunit) #4 shows 0.013
Value for GCLM (glutamate-cysteine ligase modifier subunit) #1 in “log2 vehicle/camptothecin viability”: -0.0511
